Reference: paper PMC7862700
The list shows a part of the results, in another mix than the full data. For some assays here: At the low end of the ranking, values are background and their order means little. The list shows a part of the results. For some assays here: Construct or isoform of the protein are uncertain.

The chains behind the UniProt entries cited, without tags or fusion partners. Where a name states a change or a piece, a line headed by the entry shows the natural chain unless it says otherwise.
UniProt P32519: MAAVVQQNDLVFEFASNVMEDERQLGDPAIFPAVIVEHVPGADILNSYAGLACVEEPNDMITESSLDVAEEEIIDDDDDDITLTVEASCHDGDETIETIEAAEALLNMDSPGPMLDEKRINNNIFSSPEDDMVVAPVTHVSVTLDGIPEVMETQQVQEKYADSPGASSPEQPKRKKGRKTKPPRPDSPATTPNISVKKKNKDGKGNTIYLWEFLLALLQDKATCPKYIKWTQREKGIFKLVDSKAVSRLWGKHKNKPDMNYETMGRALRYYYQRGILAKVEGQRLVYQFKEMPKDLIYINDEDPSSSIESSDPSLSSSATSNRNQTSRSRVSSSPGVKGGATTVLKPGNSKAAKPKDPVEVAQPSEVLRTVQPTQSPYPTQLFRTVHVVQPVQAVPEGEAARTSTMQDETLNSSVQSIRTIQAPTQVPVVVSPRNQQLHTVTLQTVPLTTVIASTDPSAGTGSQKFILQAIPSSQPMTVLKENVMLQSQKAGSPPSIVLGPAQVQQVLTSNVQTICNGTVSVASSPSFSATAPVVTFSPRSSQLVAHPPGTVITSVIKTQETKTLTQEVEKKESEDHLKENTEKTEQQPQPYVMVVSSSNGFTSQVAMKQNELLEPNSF

Assays:
Test in all cases: DAPPL (digital affinity profiling via proximity ligation, sequencing)
Conditions in all cases: 10 mM Tris-HCl pH 7.5, 50 mM NaCl, 1 mM DTT, 4% glycerol, room temperature, 30 min; GST-TFs on glutathione beads, 16-mer random dsDNA library, 0.1% …; high values mean tight binding; double strand, one strand shown; scale: fold enrichment (6-mer frequency, TF over GST control)
ELK4 = molecular target: T1, ELK4 (UniProt P28324-2)
T1 sequence: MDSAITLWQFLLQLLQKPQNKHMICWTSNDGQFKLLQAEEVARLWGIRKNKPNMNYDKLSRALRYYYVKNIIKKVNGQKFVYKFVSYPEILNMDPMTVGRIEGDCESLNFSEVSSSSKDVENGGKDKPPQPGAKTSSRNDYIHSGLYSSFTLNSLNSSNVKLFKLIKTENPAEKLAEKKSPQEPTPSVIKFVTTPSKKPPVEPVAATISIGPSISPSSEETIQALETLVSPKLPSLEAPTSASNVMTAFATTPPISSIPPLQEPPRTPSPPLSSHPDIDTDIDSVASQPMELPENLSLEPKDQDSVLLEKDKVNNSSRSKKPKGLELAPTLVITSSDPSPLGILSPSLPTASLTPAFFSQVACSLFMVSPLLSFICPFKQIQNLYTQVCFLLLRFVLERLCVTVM

ETV4 = molecular target: T2, ETV4 (UniProt P43268)
T2 sequence: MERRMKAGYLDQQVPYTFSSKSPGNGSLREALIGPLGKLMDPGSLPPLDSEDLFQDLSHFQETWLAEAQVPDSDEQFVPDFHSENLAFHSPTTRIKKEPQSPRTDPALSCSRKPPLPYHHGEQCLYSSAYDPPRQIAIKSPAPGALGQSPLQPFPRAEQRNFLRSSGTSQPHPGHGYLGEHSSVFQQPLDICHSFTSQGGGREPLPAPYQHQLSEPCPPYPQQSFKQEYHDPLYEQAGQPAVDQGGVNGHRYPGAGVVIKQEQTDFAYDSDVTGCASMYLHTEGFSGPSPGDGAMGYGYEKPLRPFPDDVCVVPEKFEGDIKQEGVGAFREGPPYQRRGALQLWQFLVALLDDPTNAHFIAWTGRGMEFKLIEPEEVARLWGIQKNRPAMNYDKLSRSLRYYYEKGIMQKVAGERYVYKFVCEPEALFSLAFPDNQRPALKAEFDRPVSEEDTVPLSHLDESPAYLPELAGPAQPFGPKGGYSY

ERF = molecular target: T3, ERF (UniProt P50548)
T3 sequence: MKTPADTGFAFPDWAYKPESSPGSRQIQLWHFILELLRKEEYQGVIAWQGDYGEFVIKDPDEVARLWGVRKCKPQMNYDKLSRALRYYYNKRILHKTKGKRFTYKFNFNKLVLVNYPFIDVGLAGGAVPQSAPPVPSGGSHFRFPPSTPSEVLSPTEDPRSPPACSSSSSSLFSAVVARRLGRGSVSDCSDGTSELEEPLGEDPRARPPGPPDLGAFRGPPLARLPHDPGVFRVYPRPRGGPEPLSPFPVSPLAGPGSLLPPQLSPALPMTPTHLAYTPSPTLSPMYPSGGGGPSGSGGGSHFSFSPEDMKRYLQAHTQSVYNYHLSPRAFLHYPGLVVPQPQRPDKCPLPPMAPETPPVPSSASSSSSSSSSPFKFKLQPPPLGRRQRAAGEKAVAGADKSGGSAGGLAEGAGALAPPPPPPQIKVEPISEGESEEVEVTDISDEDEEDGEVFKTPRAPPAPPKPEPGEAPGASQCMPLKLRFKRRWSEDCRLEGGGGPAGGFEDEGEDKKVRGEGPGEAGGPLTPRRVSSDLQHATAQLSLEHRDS

ELF1 = ELF1 (UniProt P32519)
ERG = molecular target: T4, ERG (UniProt P11308)
T4 sequence: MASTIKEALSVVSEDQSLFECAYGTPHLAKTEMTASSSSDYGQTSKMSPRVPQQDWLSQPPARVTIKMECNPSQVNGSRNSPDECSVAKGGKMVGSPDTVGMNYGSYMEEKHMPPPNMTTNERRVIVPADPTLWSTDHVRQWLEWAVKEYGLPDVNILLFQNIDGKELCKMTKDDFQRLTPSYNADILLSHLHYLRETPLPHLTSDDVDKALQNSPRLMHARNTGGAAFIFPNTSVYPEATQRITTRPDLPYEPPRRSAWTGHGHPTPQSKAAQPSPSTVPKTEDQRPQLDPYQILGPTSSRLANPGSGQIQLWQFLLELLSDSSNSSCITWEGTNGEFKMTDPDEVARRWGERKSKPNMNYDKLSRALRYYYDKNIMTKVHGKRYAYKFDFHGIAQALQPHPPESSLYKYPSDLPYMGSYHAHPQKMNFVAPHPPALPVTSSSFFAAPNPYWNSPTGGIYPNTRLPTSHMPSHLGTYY

## TGCCCT
ELK4
  binding signal: 1.25
ETV4
  binding signal: 1.12
ERF
  binding signal: 0.976

## GTATCA
ELK4
  binding signal: 1.12
ETV4
  binding signal: 1.05
ERF
  binding signal: 0.965

## TCCGAA
ELK4
  binding signal: 1.23
ETV4
  binding signal: 1.24
ERF
  binding signal: 1.36

## AATTAC
ELK4
  binding signal: 1.27
ETV4
  binding signal: 1.23
ERF
  binding signal: 1.35

## CGTACA
ELK4
  binding signal: 1.24
ETV4
  binding signal: 1.22
ERF
  binding signal: 1.21

## TTATGC
ELK4
  binding signal: 1.33
ETV4
  binding signal: 1.37
ERF
  binding signal: 1.16

## ATTAGG
ELK4
  binding signal: 1.06
ETV4
  binding signal: 0.985
ERF
  binding signal: 1.26

## CAATTC
ETV4
  binding signal: 1.29

## CTGTCT
ETV4
  binding signal: 1.45

## TATATC
ETV4
  binding signal: 1.51

## TCCTTA
ELF1
  binding signal: 1.66
ELK4
  binding signal: 1.41
ETV4
  binding signal: 1.42

## TAATCC
ELF1
  binding signal: 1.15
ELK4
  binding signal: 1.23
ETV4
  binding signal: 1.22

## ACTCCA
ETV4
  binding signal: 1.19

## AAACGA
ELF1
  binding signal: 1.08
ELK4
  binding signal: 0.941
ETV4
  binding signal: 1.03

## GCAATT
ETV4
  binding signal: 1.15

## CATTCA
ETV4
  binding signal: 1.06

## TTAGGC
ELF1
  binding signal: 0.993
ELK4
  binding signal: 0.963
ETV4
  binding signal: 0.978

## ATTGTC
ETV4
  binding signal: 1.17

## TGCTGG
ETV4
  binding signal: 1.2

## GTCGAC
ELF1
  binding signal: 0.962
ELK4
  binding signal: 0.942
ETV4
  binding signal: 0.973

## AACCAC
ELF1
  binding signal: 1.25
ELK4
  binding signal: 1.26
ETV4
  binding signal: 1.17

## AAGTTG
ETV4
  binding signal: 1.07

## TACTAT
ETV4
  binding signal: 1.31

## CATGTT
ELF1
  binding signal: 1.06
ELK4
  binding signal: 1.1
ETV4
  binding signal: 1.06

## TCGCTG
ETV4
  binding signal: 1.04

## AGCAAT
ETV4
  binding signal: 1.1

## CAACCT
ELF1
  binding signal: 1.2
ELK4
  binding signal: 1.15
ETV4
  binding signal: 1.26

## GAACAA
ELF1
  binding signal: 1.22
ELK4
  binding signal: 1.16
ETV4
  binding signal: 1.17

## GTAGCT
ETV4
  binding signal: 1.13

## TCTTAT
ETV4
  binding signal: 1.27

## AAAATG
ETV4
  binding signal: 1.14

## GGTACA
ETV4
  binding signal: 1.03

## GCACTC
ELF1
  binding signal: 1.33
ELK4
  binding signal: 1.33
ETV4
  binding signal: 1.34

## GCGTCC
ETV4
  binding signal: 1.34

## TAGTTA
ETV4
  binding signal: 1.13

## TCCATG
ETV4
  binding signal: 1.16

## CATTTG
ELF1
  binding signal: 1.24
ELK4
  binding signal: 1.26
ETV4
  binding signal: 1.31

## GTTGAC
ETV4
  binding signal: 1.25

## ACGACT
ELF1
  binding signal: 1.19
ELK4
  binding signal: 1.39
ETV4
  binding signal: 1.26

## TCACCT
ETV4
  binding signal: 1.24

## AATGCG
ETV4
  binding signal: 1.21

## AATTCT
ELF1
  binding signal: 1.32
ELK4
  binding signal: 1.29
ETV4
  binding signal: 1.27

## GTACCT
ELF1
  binding signal: 1.22
ELK4
  binding signal: 1.25
ETV4
  binding signal: 1.24

## GTACAC
ELF1
  binding signal: 1.17
ELK4
  binding signal: 1.23
ETV4
  binding signal: 1.2

## CTGGCT
ETV4
  binding signal: 1.3

## CTGAAC
ETV4
  binding signal: 1.34

## TCACCC
ETV4
  binding signal: 1.23

## ATTAAC
ERG
  binding signal: 1.21
ETV4
  binding signal: 1.29

## CCCTAG
ERG
  binding signal: 0.96
ETV4
  binding signal: 1.06
